From patent publication US20260116996A1 (REGENTS OF THE UNIVERSITY OF MINNESOTA, published 2026)
Results are given in words; binding and its absence hold for the method and conditions named. A result given as binding can be weak or reduced; the word gives no strength.

What was measured:
[1] = molecular target: serpin B13 (target antigen, species not stated); assay: ELISA and SPR
[2] = molecular target: serpin B13 (target antigen, species not stated); assay: surface plasmon resonance

Binder | binding [1] | binding [2]
B29_graft humanized antibody (antibody, human IgG1, kappa, V domains shown) VH: EIQLVESGGGLVQPGGSVRLSCAASGYNFKTYGMSWVRQAPGKGLEWMGWINTYSGMPTYADDFKGRFTFSLDTSKNTAYLQINSLRAEDTAVYFCARPLLGLDYWGQGTLVTVSS VL: DIQMTQSPSSLSASVGDRVTITCKSSQSLLHSDGKTFLNWFQQKPGKSPKLLIYLVSKLESGVPSRFSGSGSGTDFTLTISSLQPEDFATYYCLQHTHFPLTFGQGTKVEIKR | binds | –
recombinant fully human anti-serpinB13 antibody Clone 2 (antibody, human IgG1, kappa, V domains shown, also called mAb2; CLONE2-H(m1) / CLONE2-L(m1)) VH: QMQLVQSGGGVVRPGGSLRLSCAASGFTFDDYGMSWVRQAPGKGLEWVSGINWNGGSTGYADSVKGRFTISRDNAKNSLYLQMNSLRAEDTALYYCARESSMTTVTTYLLREVGVGLDFDYWGQGTLVTVSS VL: ETTLTQSPGTLSLSPGERATLSCRASQTVSGSYLAWYQQKPGQPPRLLIYGASSRATGIPDRFSGSGSGTDFTLTISRLEPEDFAVYYCQDYGSSRTFGQGTKVELKR | – | binds
recombinant fully human anti-serpinB13 antibody Clone 3 (antibody, human IgG1, kappa, V domains shown, also called mAb3; CLONE3-H(m1) / CLONE3-L(m1)) VH: QVQLQQWGAGLLKPSETLSLTCAVYGGSFSGYYWSWIRQPPGKGLEWIGEINHSGSTNYNPSLKSRVTISVDTSKNQFSLKLSSVTAADTAVYYCARRYCSGGSCYLVGTGSELDYWGQGTLVTVSS VL: DIQMTQSPSTLSASVGDRVTITCRASQSISSWLAWYQQKPGKAPKLLIYKASSLEIGVPSRFSGSGYGTEFTLTISSLQPDDFATYYCLQYSTHSTFGQGTRVEIKR | – | binds
mouse monoclonal antibody to serpin B13 (clone B29) (antibody, V domains shown) VH: QIQLVQSGPELKKPGETVKISCKASGYTFTTYGMSWVKQAPGKGLKWMGWINTYSGMPTYADDFKGRFAFSLETSATTAYLQINNLKNEDTATYFCARPLLGLDYWGQGTTLTVSS VL: DIVMTQTPLSLSVTIGQPASISCKSSQSLLHSDGKTFLNWFLQRPGQSPKLLIYLVSKLESGIPDRFSGSGSGTDFTLKISRVEVEDLGVYYCLQHTHFPLTFGAGTKLEIK | – | binds
B29 mouse/human chimeric IgG (antibody, V domains shown) VH: QIQLVQSGPELKKPGETVKISCKASGYTFTTYGMSWVKQAPGKGLKWMGWINTYSGMPTYADDFKGRFAFSLETSATTAYLQINNLKNEDTATYFCARPLLGLDYWGQGTTLTVSS VL: DIVMTQTPLSLSVTIGQPASISCKSSQSLLHSDGKTFLNWFLQRPGQSPKLLIYLVSKLESGIPDRFSGSGSGTDFTLKISRVEVEDLGVYYCLQHTHFPLTFGAGTKLEIKR | binds | –
